From doi:10.1101/2020.03.02.973685
Read-outs that look alike come from different tables or passages of the source. These are yes or no findings as the source states them, for the method shown. In cells and extracts the contact can be indirect. Some entries that bind do so weakly or less than the wild type. For some of these results: Tags and fused reporters may be left off the sequences shown. Blank lines part the entries; values can stand above or below the molecule they belong to.

Amino acid sequences for entries named in this document (tags omitted).
UniProt P53115, whole entry: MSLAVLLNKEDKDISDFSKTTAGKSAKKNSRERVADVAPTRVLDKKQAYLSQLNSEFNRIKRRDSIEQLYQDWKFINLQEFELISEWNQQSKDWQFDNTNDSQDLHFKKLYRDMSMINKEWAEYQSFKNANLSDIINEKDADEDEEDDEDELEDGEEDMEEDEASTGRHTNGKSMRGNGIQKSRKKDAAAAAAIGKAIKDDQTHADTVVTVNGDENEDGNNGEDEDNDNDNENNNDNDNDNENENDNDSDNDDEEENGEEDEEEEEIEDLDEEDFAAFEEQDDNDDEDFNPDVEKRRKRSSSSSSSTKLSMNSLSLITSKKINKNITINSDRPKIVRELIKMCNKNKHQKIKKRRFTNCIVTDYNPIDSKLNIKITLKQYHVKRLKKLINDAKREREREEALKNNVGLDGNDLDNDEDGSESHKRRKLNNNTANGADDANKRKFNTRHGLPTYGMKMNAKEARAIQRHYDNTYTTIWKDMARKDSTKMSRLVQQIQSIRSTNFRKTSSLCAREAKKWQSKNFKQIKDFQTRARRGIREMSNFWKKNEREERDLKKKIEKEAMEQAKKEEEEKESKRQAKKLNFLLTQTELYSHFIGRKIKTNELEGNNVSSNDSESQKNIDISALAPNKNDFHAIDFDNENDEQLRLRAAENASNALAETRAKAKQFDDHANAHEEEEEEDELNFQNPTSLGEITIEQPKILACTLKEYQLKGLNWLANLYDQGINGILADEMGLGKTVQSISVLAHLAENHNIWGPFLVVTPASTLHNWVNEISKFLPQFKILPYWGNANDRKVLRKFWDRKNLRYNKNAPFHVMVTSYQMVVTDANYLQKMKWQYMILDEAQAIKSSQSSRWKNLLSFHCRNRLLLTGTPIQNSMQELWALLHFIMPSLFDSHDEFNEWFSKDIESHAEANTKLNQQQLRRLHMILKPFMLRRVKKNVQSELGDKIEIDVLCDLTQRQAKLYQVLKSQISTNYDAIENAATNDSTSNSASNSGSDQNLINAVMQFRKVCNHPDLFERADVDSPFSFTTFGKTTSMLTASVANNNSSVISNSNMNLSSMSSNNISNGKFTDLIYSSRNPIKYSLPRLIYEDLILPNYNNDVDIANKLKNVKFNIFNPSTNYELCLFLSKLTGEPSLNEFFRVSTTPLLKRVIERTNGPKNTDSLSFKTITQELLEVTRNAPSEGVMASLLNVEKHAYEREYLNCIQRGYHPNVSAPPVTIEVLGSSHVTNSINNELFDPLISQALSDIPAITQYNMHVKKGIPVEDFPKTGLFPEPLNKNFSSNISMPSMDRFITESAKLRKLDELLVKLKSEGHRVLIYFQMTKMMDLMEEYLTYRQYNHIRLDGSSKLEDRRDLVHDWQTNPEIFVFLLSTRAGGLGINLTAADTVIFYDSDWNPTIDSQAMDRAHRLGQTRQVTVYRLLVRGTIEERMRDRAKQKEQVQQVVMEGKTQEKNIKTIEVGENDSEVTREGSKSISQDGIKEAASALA
UniProt P39081, whole entry: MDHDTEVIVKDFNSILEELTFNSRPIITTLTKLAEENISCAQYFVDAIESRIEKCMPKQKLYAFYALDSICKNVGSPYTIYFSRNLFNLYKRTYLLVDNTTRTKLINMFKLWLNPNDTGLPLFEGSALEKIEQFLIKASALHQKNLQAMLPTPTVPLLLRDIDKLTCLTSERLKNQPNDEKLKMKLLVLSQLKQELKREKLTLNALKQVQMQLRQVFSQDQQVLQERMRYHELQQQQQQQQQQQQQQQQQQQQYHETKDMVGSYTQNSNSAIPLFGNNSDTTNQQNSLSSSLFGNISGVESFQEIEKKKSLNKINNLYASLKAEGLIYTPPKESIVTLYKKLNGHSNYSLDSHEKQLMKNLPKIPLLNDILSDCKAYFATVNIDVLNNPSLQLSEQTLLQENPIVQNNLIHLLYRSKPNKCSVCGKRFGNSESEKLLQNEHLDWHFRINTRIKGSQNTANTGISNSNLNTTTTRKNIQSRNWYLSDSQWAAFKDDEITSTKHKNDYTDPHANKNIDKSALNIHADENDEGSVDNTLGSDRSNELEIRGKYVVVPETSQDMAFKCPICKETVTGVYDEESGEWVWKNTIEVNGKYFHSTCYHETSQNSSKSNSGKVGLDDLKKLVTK
UniProt P04050, whole entry: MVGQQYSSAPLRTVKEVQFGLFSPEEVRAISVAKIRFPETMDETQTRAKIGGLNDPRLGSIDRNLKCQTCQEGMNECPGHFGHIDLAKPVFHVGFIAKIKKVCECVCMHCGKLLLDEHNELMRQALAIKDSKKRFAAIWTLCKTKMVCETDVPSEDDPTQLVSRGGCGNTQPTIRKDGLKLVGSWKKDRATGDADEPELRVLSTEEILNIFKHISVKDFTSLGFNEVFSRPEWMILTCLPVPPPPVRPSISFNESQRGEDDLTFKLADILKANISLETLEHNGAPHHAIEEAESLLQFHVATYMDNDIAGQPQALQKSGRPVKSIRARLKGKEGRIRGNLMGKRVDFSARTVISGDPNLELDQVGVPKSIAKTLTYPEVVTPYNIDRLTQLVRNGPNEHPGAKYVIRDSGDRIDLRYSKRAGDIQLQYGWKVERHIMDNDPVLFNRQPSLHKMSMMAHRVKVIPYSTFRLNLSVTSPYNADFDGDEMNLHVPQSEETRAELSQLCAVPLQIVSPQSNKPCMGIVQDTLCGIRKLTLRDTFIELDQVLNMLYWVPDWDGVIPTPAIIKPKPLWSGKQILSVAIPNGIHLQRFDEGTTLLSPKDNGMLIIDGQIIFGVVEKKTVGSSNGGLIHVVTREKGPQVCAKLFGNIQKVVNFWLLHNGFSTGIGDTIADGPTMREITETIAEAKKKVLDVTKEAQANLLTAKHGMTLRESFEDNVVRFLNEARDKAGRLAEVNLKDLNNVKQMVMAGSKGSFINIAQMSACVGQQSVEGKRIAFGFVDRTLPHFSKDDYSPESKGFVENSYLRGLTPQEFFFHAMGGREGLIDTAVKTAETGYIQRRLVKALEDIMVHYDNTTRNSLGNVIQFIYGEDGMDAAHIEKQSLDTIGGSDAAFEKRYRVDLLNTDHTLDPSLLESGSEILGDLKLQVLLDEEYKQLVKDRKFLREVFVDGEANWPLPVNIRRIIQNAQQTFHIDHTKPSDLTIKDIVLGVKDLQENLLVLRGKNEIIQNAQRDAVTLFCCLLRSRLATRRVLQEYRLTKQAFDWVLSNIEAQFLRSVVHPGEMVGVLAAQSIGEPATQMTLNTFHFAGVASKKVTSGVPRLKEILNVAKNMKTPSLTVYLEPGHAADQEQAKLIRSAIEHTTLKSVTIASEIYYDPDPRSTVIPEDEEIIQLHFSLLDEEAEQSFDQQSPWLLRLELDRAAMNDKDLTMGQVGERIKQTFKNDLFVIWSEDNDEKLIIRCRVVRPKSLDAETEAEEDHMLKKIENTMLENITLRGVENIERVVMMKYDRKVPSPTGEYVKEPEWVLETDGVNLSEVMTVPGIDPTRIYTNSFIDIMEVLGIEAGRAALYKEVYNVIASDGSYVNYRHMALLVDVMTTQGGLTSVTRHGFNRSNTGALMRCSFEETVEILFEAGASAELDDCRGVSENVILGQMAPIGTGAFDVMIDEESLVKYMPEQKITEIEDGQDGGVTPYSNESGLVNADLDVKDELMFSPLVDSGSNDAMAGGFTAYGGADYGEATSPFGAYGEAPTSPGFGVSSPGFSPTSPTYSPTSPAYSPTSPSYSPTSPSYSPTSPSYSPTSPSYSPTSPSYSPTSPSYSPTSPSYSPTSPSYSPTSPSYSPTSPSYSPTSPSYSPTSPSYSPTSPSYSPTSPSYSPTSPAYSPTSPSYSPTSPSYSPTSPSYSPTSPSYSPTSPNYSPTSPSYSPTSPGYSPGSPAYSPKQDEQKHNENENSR

How the values were obtained:
Assay in all cases: co-IP
[1] = biological target: Ino80 tagged with FLAG epitope (S. cerevisiae) (UniProt P53115)
[2] = biological target: T1, Nab2-HA (S. cerevisiae) (UniProt P32505)
T1 sequence: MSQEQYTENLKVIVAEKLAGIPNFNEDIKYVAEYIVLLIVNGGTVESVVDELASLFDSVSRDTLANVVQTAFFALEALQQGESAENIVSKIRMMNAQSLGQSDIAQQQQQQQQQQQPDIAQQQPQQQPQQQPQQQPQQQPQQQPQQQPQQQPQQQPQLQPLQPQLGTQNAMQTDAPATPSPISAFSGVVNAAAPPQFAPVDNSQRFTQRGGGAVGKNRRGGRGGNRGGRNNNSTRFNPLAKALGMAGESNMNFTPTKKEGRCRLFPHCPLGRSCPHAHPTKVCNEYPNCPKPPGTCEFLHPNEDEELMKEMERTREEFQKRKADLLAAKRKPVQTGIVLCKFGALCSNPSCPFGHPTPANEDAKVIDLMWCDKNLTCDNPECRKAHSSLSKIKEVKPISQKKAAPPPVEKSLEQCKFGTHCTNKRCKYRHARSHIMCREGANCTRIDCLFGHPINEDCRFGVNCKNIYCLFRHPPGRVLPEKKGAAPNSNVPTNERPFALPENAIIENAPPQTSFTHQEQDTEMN

[3] = biological target: Ino80 tagged with FLAG epitope (S. cerevisiae) (UniProt P53115); remark: listed apart in the source
[4] = biological target: T1, Nab2-HA (S. cerevisiae); remark: listed apart in the source

Molecule: Pcf11-HA (from UniProt P39081 1-626)
binding [1]: no binding

B2: Arp5 (protein, UniProt P53946 1-755)
chain: MSSRDASLTPLKAVVIDDPPLRQTPEPFDEQSAYNPQSPIAIDFGSSKLRAGFVNHATPTHIFPNALTKFRDRKLNKNFTFVGNDTLLDQAVRSQSRSPFDGPFVTNWNLTEEILDYTFHHLGVVPDNGIPNPILLTERLATVQSQRTNWYQILFETYNVPGVTFGIDSLFSFYNYNPSGNKTGLVISCGHEDTNVIPVVDGAGILTDAKRINWGGHQAVDYLNDLMALKYPYFPTKMSYLQYETMYKDYCYVSRNYDEDIEKILTLENLDTNDVVVEAPFTEVLQPQKTEEELRIQAEKRKETGKRLQEQARLKRMEKLVQKQEEFEYFSKVRDQLIDEPKKKVLSVLQNAGFDDERDFKKYLHSLEQSLKKAQMVEAEDDSHLDEMNEDKTAQKFDLLDIADEDLNEDQIKEKRKQRFLKASQDARQKAKEEKERVAKEEEEKKLKEQQWRETDLNGWIKDKRLKLNKLIKRRKEKLKLRDEMKDRKSQVSQNRMKNLASLAEDNVKQGAKRNRHQATIDNDPNDTFGANDEDWLIYTDITQNPEAFEEALEYEYKDIVELERLLLEHDPNFTEEDTLEAQYDWRNSILHLFLRGPRPHDSENIHEQHQMHLNVERIRVPEVIFQPTMGGQDQAGICELSETILLKKFGSQPGKLSQTSIDMVNNVLITGGNAKVPGLKERIVKEFTGFLPTGTNITVNMSSDPSLDAWKGMAALARNEEQYRKTVISKKEYEEYGPEYIKEHKLGNTKYFED
binding [4]: binds

Results, then the molecule that gave them:

binding [2]: binds
Molecule: Rpb1 (from UniProt P04050 1-1733)

binding [3]: binds
B1: Nrd1-HA (protein, UniProt P53617 1-575)
chain: MQQDDDFQNFVATLESFKDLKSGISGSRIKKLTTYALDHIDIESKIISLIIDYSRLCPDSHKLGSLYIIDSIGRAYLDETRSNSNSSSNKPGTCAHAINTLGEVIQELLSDAIAKSNQDHKEKIRMLLDIWDRSGLFQKSYLNAIRSKCFAMDISNNTANTASQQLSLDPKQRSKQILSNLKKSPPLNLNISLPTDLTSTDPAKQQAALFQVIAALQKHFKTLPSHTSVGTVAPPQAHTITEYGSRRERERERERYNSRRNRSRSPPAPFSQPSTGRKDRYPSVAQDQYSIGAPNTTFGTNNHHLYPDELNVSNNPHYRPKPVSYDSTLPPDHIKVYSRTLFIGGVPLNMKEWDLANVLKPFAEVQSVILNNSRKHAFVKVYSRHEAENVLQNFNKDGALPLRTRWGVGFGPRDCCDYQHGYSIIPMHRLTDADKKWSVSAQWGGTSGQPLVTGIVFEEPDIIVGEGVSSKAISQKMPTDSGRNGPRSGKPNKSGSISSISPVPYGNAPLASPPPQQYVQPMMQQPYGYAPNQPLPSQGPAAAAPPVPQQQFDPTAQLNSLMNMLNQQQQQQQQS
